In US20110117113A1, “IMMUNOGLOBULIN SINGLE VARIABLE DOMAIN DIRECTED AGAINST HUMAN CXCR4 AND OTHER CELL ASSOCIATED PROTEINS AND METHODS TO GENERATE THEM” (priority 2009, published 2011):
These are yes or no findings as the source states them, for the method shown. Some binding calls cover weakened binding; strength is not graded here.

Chains of the proteins cited; added tags and fusions are not shown. Lines headed by an entry give the natural chain unless they say otherwise; changes in a name come on top.
UniProt P61073: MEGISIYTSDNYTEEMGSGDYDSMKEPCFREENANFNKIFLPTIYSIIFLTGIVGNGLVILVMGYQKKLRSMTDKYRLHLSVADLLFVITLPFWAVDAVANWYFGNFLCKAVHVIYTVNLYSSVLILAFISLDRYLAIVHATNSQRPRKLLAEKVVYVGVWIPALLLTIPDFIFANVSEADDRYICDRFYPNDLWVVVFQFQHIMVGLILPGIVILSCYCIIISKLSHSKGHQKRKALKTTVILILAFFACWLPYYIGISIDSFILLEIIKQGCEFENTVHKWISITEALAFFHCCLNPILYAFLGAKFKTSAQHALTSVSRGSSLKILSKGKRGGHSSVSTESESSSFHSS

Assays:
[1] = biological target: wildtype human CXCR4 (pcDNA3.1-CXCR4, expressed in HEK293T) (human) (UniProt P61073); assay: radioligand competition, HEK293T-CXCR4 membranes
CXCR4 (N119A) (human) = CXCR4 (N119A) (human) (UniProt P61073); assay: competition with [125I]-CXCL12, membranes with CXCR4 (N119A); no plateau at 2 µM
[2] = biological target: wildtype human CXCR4 (pcDNA3.1-CXCR4, expressed in HEK293T) (human) (UniProt P61073); assay: periplasmic extract screen, [125I]-CXCL12 displacement, HEK293T-CXCR4 membranes

Measured: binding

B1: Nanobody 238D4 (VHH)
VHH: EVQLMESGGGLVQAGGSLRLSCAASGRTFNNYAMGWFRRAPGKEREFVAAITRSGVRSGVSAIYGDSVKDRFTISRDNAKNTLYLQMNSLKPEDTAVYTCAASAIGSGALRRFEYDYSGQGTQVTVSS
binds: all assays above
